Data reported in publication PMC11376556.
No constants are given. Whether binding was seen depends on the method and setting. Binding seen in cells or lysates may run through a third protein. A yes stands for co-enrichment or nearness to the bait. Other partners may have been found.

By UniProt entry, the sequences of proteins in these tests, tags left out.
UniProt P15864: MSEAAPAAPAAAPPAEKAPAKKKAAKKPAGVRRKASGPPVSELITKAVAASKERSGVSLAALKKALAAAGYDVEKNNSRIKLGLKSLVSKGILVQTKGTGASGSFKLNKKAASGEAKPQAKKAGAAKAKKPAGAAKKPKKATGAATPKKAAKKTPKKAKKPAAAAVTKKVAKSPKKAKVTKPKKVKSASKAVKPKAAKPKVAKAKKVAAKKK
UniProt P09874: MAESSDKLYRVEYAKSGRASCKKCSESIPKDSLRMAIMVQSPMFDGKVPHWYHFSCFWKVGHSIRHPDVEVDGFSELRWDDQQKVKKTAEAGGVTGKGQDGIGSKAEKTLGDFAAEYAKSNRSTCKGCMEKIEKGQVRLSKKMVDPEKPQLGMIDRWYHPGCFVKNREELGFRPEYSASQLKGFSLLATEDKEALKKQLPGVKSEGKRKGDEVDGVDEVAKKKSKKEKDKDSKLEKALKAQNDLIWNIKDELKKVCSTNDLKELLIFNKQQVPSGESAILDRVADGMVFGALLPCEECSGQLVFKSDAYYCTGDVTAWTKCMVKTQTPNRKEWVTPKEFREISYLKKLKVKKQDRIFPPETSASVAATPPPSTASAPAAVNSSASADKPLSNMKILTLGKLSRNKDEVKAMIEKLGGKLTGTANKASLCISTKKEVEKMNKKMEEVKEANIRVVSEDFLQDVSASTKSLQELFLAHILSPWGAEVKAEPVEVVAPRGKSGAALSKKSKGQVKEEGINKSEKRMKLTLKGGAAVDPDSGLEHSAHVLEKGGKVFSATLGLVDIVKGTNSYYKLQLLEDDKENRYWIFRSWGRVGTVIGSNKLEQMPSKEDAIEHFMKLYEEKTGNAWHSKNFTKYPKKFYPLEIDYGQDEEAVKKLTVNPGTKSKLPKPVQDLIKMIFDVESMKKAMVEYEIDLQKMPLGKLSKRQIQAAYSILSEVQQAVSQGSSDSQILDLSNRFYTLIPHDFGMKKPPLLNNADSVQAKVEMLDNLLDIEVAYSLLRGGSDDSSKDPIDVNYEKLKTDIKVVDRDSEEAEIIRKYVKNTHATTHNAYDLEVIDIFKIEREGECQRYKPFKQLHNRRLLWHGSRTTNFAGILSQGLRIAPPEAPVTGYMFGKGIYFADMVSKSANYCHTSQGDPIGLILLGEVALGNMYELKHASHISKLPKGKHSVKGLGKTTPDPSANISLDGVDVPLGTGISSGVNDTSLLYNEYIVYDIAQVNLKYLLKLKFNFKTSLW

Target: GFP-tagged histone H1.2 (mouse HIST1H1C cDNA in pEGFP-N1) (mouse) (UniProt P15864)
Experiment: affinity purification with mass spectrometry; GFP-tagged H1.2 expressed in HEK293T cells; lysate on anti-GFP beads; eluate separated by 12% SDS-PAGE, trypsin digest, LC-MS/MS; 451 proteins identified

binding: binds
Substance: PARP1, endogenous in HEK293T cells (from UniProt P09874 1-1014) (enzyme)
